Test results published in ChEMBL document CHEMBL5233208, “Optimization of P2Y12 Antagonist Ethyl 6-(4-((Benzylsulfonyl)carbamoyl)piperidin-1-yl)-5-cyano-2-methylnicotinate (AZD1283) Led to the Discovery of an Oral Antiplatelet Agent with Improved Druglike Properties” (J Med Chem, 2019).
Converted amounts (≈) assume the structure as drawn.

Chains of the proteins cited; added tags and fusions are not shown.
UniProt P33261, whole entry: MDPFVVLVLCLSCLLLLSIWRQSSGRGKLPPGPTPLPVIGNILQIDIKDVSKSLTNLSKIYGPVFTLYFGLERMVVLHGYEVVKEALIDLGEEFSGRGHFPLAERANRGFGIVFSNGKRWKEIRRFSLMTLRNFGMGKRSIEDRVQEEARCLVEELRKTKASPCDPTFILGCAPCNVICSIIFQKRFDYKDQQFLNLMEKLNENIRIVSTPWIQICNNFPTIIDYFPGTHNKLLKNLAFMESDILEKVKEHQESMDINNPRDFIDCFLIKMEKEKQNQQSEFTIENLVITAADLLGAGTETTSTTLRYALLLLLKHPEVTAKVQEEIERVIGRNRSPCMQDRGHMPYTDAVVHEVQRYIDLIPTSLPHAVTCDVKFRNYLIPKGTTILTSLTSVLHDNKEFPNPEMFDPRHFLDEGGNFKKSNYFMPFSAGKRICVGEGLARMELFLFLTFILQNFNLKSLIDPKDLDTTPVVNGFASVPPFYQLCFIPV

What was measured:
[1] = physchem; conditions: simulated gi fluid, pH 6.8
[2] = biological target: Cytochrome P450 2C19 (Homo sapiens, UniProt P33261); experiment: Inhibition of CYP2C19 in human liver microsomes using S-mephenytoin as substrate preincubated for 10 mins followed by NADPH addition and measured after 15 mins by LC-MS/MS analysis
[3] = physchem; conditions: buffer
[4] = physchem; conditions: simulated gi fluid, pH 1.2

Structure (SMILES) | solubility thermodynamic at 24 h [1] | IC50 [2] | solubility thermodynamic at 24 h [3] | solubility thermodynamic at 24 h [4]
Cc1ccc(CS(=O)(=O)NC(=O)C2(C)CCN(c3nc4c(cc3C#N)C(=O)OC4)CC2)cc1 | 90.9 µM (≈ 42.6 µg/mL) | 50 µM | 54.2 µM (≈ 25.4 µg/mL) | 4 µM (≈ 1.87 µg/mL)
N#Cc1cc2c(nc1N1CCC(C(=O)NS(=O)(=O)Cc3ccccc3)CC1)COC2=O |  | > 25 µM |  | 
